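Methionyl-tRNA synthetase (putative), Leishmania donovani (UniProt E9BF75). Primary screen of methionyl-tRNA synthetase; the read-out is not stated. The test concentration is not given. The values are filed as inhibition. Size under these conditions: about 68,000 compounds, about 24 of them at 50% or above in at least one test.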

Chains of the proteins cited; added tags and fusions are not shown.
UniProt E9BF75, entry or part of it: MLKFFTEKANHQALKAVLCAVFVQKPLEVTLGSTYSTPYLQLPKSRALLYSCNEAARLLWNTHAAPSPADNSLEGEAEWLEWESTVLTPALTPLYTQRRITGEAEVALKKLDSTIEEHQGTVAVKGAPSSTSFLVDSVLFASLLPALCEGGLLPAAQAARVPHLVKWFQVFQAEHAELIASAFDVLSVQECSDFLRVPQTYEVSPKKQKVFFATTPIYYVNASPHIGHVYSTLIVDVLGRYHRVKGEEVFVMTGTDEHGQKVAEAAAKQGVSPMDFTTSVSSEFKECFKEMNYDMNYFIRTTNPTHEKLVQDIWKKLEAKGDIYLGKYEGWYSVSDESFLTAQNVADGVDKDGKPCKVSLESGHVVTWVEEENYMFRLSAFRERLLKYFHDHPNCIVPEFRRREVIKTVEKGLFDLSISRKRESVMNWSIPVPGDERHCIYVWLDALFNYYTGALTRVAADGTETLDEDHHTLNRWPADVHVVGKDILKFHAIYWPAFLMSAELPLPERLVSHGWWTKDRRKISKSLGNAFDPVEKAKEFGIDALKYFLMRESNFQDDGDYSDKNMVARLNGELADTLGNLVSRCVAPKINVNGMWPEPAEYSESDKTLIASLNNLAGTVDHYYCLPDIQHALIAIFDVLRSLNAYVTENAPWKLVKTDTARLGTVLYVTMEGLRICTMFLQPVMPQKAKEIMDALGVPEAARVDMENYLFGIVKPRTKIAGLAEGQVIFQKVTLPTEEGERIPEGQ

Results are percentages, as filed. The controls that fix the scale are not given in the record; negative values are as filed. The compounds are a random part of those screened.

SMILES | Inhibition
O=C(Nc1cnccn1)[C@@H]1COC[C@H]2CN(C3CCCC3)C[C@H]21 | 9.524%
Cc1nc(C)n(C2CCCN(C(=O)c3csc(C)n3)C2)n1 (stereo not given) | 11.35%
COc1ccccc1CN1C[C@@H]2CN(Cc3cccnc3)CCO[C@@H]2C1 | 2.094%
CC(C(=O)NC(N)=O)N(C)CCCc1cc(-c2ccccc2)no1 (stereo not given) | 18.73%
c1cncc(C2COC3(CCN(CC4CC4)CC3)C2)c1 (stereo not given) | 20%
Cc1n[nH]c2ncc(CNC3CCCN(c4ncccn4)C3)cc12 (stereo not given) | 11.08%
CN(C)C1CCCN(C(=O)NCCNC(=O)C2CCCC2)C1 (stereo not given) | 10.92%
COCCOc1ccc(NC(=O)C2CC(=O)N(C3CC3)C2)cn1 (stereo not given) | 17.78%
O=C1CN(CCS(=O)(=O)c2ccc(Cl)cc2)CCN1 | 8.122%
OC1(Cn2ccc3ncccc32)CCN(Cc2ccccc2F)CC1 | 18.75%
Cc1cnn(CC2CN(Cc3nc(C)c4ccccc4n3)CCO2)c1 (stereo not given) | 37.02%
CCn1c(CN(C)C(=O)c2ccc(OC)nc2)nc2ccccc21 | 6.354%
COc1ccccc1CC(C)(C)NC(=O)CNS(C)(=O)=O | 17.58%
CN(Cc1ccco1)[C@@H]1CN(CC2CCOCC2)C[C@@H]2CCCO[C@@H]21 | 10.99%
Cc1ccccc1OC1CCN(CC(=O)Nc2c(C)nn(C)c2C)CC1 | 19.81%
COc1cccc(CC2CN(C3CCN(C(C)=O)CC3)CCO2)c1 (stereo not given) | 10.24%
O=C(C1CCOCC1)N1CCC2(CCN(Cc3nccs3)CC2)CC1 | 12%
CCCNC(=O)CNc1cc(C(=O)NCC(F)(F)F)cc(F)c1C | 2.892%
CCCS(=O)(=O)N1CCC2(CCN(Cc3cccc(F)c3)C2=O)C1 (stereo not given) | 6.875%
Cc1ccc(CCNC(=O)Cn2nc(C)n(Cc3ccccc3)c2=O)s1 | 4.693%
COC(=O)c1ccc(CNC(C)c2ccc(S(C)(=O)=O)cc2)cc1 (stereo not given) | 8.078%
Cc1nc(CN2CCCC(NCc3cnc(C(C)(C)C)s3)C2)no1 (stereo not given) | 16.76%
CN(c1ncc(C(N)=O)cc1Cl)C1CCC(c2ccccc2)CC1 (stereo not given) | 19.79%
Cc1nn(C)cc1C(=O)N1CCC(CSc2ccccc2)C1 (stereo not given) | 12.78%
O=C1CC2(CCCC2)C(=O)N1CC(O)COCc1ccccc1F (stereo not given) | 4.12%
CCOCC(=O)N1Cc2nccn2CC(CN(C)C)C1 (stereo not given) | 19.02%
COC(=O)c1cccn1C1CCN(Cc2nc3ccccc3o2)CC1 | 18.03%
CC(C)c1ccc(C(N)c2cccs2)cc1 (stereo not given) | 13.83%
Cc1cccc(-c2noc(CN3CCn4c(nnc4C4CC4)C3)n2)c1 | 9.235%
CC(=O)c1ccc(N2CCCC(CO)(Cc3ccccc3C)C2)nc1 (stereo not given) | 19.4%
COC(=O)CNC(=O)C12CCC(=O)N1c1cc(Cl)ccc1S2 (stereo not given) | 11.55%
CCc1nnc(NC(=O)NCCN(C)C(=O)OC(C)(C)C)s1 | 15.36%
CCCc1nnc(N(C)CC2CCCN(CC)C2)o1 (stereo not given) | 2.957%
COCCN1CCOCC12CCN(c1ccc(C#N)cc1)CC2 | 14.86%
CCn1nnc2c1C(COCCN(C)C)CN(Cc1ccc(C)s1)C2 (stereo not given) | 16.24%
COc1ccc(-c2nc(CN3CCCC(OC)C3)c(C)o2)c(F)c1 (stereo not given) | 7.436%
CC(C)CC(C)NC1CCN(c2ccc(-c3cscn3)cc2)CC1 (stereo not given) | 12.81%
CC(c1ccc(F)cc1)N1CCN(Cc2ccc(C#N)cc2)CC1 (stereo not given) | 13.07%
Cc1cc(C)c2nc(C)cc(C(=O)NC(C)c3nnn[nH]3)c2c1 (stereo not given) | 6.944%
CCn1cc(S(=O)(=O)NCC(OC)c2ccccc2)cn1 (stereo not given) | 12.32%
CC(C)C(=O)N1CCC2(CC1)COCCN2Cc1ccc(F)cc1 | 4.667%
CN1CCN(c2nc(O)cc(Cc3ccccc3F)n2)CC1 | 19.62%
O=C(CCn1nc(-c2cccs2)oc1=O)Nc1cccc(F)c1 | 10.89%
CN1CCN(C2CCN(Cc3ccc(Cl)s3)CC2)C1=O | 19.26%
CC(C(=O)N1CCN(Cc2ccncc2)CC1)n1cncn1 (stereo not given) | 7.902%
CO[C@H]1CC[C@H]2[C@H]1OCCN2C(=O)c1nn(C)c2ccccc12 | -12.57%
Cn1cc(CNC(=O)C2COCC(=O)N2Cc2ccccc2)cn1 (stereo not given) | 11%
CC(O)CN1CCN(C(=O)c2ccc(N(C)C)nc2)CC1 (stereo not given) | 2.024%
CCC(CC)C(=O)NS(=O)(=O)c1ccc(C#N)cc1C(F)(F)F | 16.67%
Cc1cnn(CC2CCCCN2Cc2ncc(C(C)(C)C)o2)c1 (stereo not given) | 10.54%
Cc1n[nH]c(C)c1-c1nccnc1CC1CCCN(C)C1 (stereo not given) | 6.25%
COc1c(CC2CC(C(=O)O)=NO2)c(Br)c2c(c1OC)OCO2 (stereo not given) | 9.348%
Cn1cnnc1C1CCCN(C(=O)NCc2cc[nH]n2)C1 (stereo not given) | 2.362%
COCc1noc(-c2ccc(N3CCCCC3CCCO)nc2)n1 (stereo not given) | 9.341%
CSc1ccc(CNC(c2ccc(F)cc2)c2nccn2C)cc1 (stereo not given) | 19.37%
CCc1nnc(CNC(=O)CCN2CCN(c3cccc(C)c3)CC2)s1 | 18.73%
CCNC(=O)NC(=O)CNc1cccc(C(=O)c2ccccc2)c1 | 14.78%
CN(Cc1ccc(F)cc1)C(=O)NCC1(N2CCOCC2)CCSC1 (stereo not given) | 2.536%
O=c1cc(N2CCCCC2)cnn1Cc1noc(C2CCCO2)n1 (stereo not given) | 10.45%
CC(C)Cc1noc(CN(C)c2cc(N(C)C)ncn2)n1 | 10.18%
CC(C)(C(=O)NCC(=O)NC1CC1)c1ccccc1F | 21.09%
Cc1nc(N2CCN(C)CC2)ncc1C(=O)N1CCCCC1 | 12.58%
O=C(NCCC1CCN(CC(F)(F)F)CC1)C1CCCOC1 (stereo not given) | 6.266%
COCC(NC(=O)c1ccoc1)c1ccc(C)o1 (stereo not given) | 14.29%
Cc1ccc(C(=O)N2CCC3(CCC(=O)N(CC(C)O)C3)CC2)c(O)c1 (stereo not given) | 10.48%
O=C(NCC1CC1)c1cc(C2CC2)nc2onc(C3CCCNC3)c12 (stereo not given) | 13.71%
O=C(Nc1cc(-n2cccc2)ccc1F)N1CCCC1 | 17.6%
CN(C)c1cc(CNC(=O)c2ccc(F)cc2F)ccn1 | 12.55%
CN(c1ncccc1CNCc1ncc[nH]1)C1CCCCC1 | 15.82%
c1ccc(-n2cc(CNC3CCc4ncnn4C3)nn2)cc1 (stereo not given) | 17.71%
COCc1n[nH]c2c1CN(Cc1cccs1)C2 | 9.343%
COCCNC(=O)Nc1ccc(C(=O)N2CCSCC2)cc1C | 15.85%
O=C1CCCN1c1cccc(CNCc2nc(-c3ccco3)no2)c1 | 9.172%
COc1ccc(C(=O)O)cc1-c1cccc(C(C)N(C)C)c1 (stereo not given) | 8.333%
CSCC[C@H](NC(=O)Cn1ccc2ccc(Cl)cc21)C(=O)O | 17.88%
CSCC1CCN(C(=O)c2ccccc2NCc2cccnc2)C1 (stereo not given) | 15.26%
Cc1cc(C)n2nc(CC(=O)N[C@H]3C[C@H]4CN(C)CCN4C3)nc2n1 | 5.882%
Cc1cc(CN2CCN(C(=O)NCc3ccco3)CC2)no1 | 3.614%

For reference, 6 entries once more:

- CO[C@H]1CC[C@H]2[C@H]1OCCN2C(=O)c1nn(C)c2ccccc12 | -12.57%
- COc1cccc(CC2CN(C3CCN(C(C)=O)CC3)CCO2)c1 (stereo not given) | 10.24%
- COC(=O)CNC(=O)C12CCC(=O)N1c1cc(Cl)ccc1S2 (stereo not given) | 11.55%
- CCc1nnc(CNC(=O)CCN2CCN(c3cccc(C)c3)CC2)s1 | 18.73%
- CCNC(=O)NC(=O)CNc1cccc(C(=O)c2ccccc2)c1 | 14.78%
- Cc1cnn(CC2CN(Cc3nc(C)c4ccccc4n3)CCO2)c1 (stereo not given) | 37.02%

From ChEMBL document CHEMBL3988442, “University of Dundee, Small-Polar-MMV Screening Library” (2021).